Source: article PMC4545792
Changes are numbered by the printed parent chain. These are yes or no findings as the source states them, for the method shown. In cells and extracts the contact can be indirect. A yes stands for co-enrichment or nearness to the bait. Other partners may have been found. For some assays here: No binding means not detected with the bait. Where a sequence is shown, tags or fusion partners need not be part of it.

T1: FLAG-FECH M76H variant (human ferrochelatase) (human) (UniProt P22830)
T1 sequence: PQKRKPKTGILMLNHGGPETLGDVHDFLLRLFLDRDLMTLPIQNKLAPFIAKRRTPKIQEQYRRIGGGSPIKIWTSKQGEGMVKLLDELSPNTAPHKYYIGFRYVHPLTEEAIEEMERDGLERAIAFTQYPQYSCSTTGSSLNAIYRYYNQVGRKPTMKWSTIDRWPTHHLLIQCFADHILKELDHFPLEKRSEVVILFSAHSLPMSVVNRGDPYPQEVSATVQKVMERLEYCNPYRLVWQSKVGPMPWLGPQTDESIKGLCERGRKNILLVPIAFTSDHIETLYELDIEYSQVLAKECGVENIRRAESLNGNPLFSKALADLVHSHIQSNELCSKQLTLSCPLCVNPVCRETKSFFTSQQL

T2: FLAG-PPOX (human protoporphyrinogen oxidase, carboxy terminal FLAG) (human) (UniProt P50336)
T2 sequence: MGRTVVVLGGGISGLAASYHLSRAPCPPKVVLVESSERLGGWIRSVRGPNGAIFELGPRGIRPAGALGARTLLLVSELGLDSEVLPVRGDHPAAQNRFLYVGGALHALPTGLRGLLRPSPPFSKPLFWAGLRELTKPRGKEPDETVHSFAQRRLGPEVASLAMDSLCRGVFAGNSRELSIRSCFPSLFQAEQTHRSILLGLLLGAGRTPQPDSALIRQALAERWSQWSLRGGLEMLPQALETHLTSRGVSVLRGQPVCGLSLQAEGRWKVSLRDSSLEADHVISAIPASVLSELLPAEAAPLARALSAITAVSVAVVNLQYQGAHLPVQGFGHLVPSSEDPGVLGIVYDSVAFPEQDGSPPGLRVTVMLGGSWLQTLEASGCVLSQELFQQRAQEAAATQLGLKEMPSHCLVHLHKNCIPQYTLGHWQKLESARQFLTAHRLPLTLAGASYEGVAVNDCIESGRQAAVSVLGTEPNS

T3: FLAG-FECH E343K variant (human ferrochelatase) (human) (UniProt P22830)
T3 sequence: T1 sequence with H15M, E282K

T4: FLAG-FECH (human ferrochelatase, wild type) (human) (UniProt P22830)
T4 sequence: T1 sequence with H15M

B1: mouse 2-oxoglutarate/malate carrier slc25a11 (ogc) (protein, UniProt Q9CR62 1-314)
chain: MAATASPGAGRMDGKPRTSPKSVKFLFGGLAGMGATVFVQPLDLVKNRMQLSGEGAKTREYKTSFHALTSILKTEGLKGIYTGLSAGLLRQATYTTTRLGIYTVLFERLTGADGTPPGFLLKALIGMTAGATGAFVGTPAEVALIRMTADGRLPADQRRGYKNVFNALVRIAREEGVPTLWRGCIPTMARAVVVNAAQLASYSQSKQFLLDSGYFSDNILCHFCASMISGLVTTAASMPVDIVKTRIQNMRMIDGKPEYKNGLDVLLKVVRYEGFFSLWKGFTPYYARLGPHTVLTFIFLEQMNKAYKRLFLSG
B2: mouse ADP/ATP translocase 1 slc25a4 (ant1) (protein, UniProt P48962 1-298)
chain: MGDQALSFLKDFLAGGIAAAVSKTAVAPIERVKLLLQVQHASKQISAEKQYKGIIDCVVRIPKEQGFLSFWRGNLANVIRYFPTQALNFAFKDKYKQIFLGGVDRHKQFWRYFAGNLASGGAAGATSLCFVYPLDFARTRLAADVGKGSSQREFNGLGDCLTKIFKSDGLKGLYQGFSVSVQGIIIYRAAYFGVYDTAKGMLPDPKNVHIIVSWMIAQSVTAVAGLVSYPFDTVRRRMMMQSGRKGADIMYTGTLDCWRKIAKDEGANAFFKGAWSNVLRGMGGAFVLVLYDEIKKYV
B3: mouse ADP/ATP translocase 2 slc25a5 (ant2) (protein, UniProt P51881 1-298)
chain: MTDAAVSFAKDFLAGGVAAAISKTAVAPIERVKLLLQVQHASKQITADKQYKGIIDCVVRIPKEQGVLSFWRGNLANVIRYFPTQALNFAFKDKYKQIFLGGVDKRTQFWRYFAGNLASGGAAGATSLCFVYPLDFARTRLAADVGKAGAEREFKGLGDCLVKIYKSDGIKGLYQGFNVSVQGIIIYRAAYFGIYDTAKGMLPDPKNTHIFISWMIAQSVTAVAGLTSYPFDTVRRRMMMQSGRKGTDIMYTGTLDCWRKIARDEGSKAFFKGAWSNVLRGMGGAFVLVLYDEIKKYT
B4: mouse glutaredoxin 5 (glrx5) (protein, UniProt Q80Y14 32-152)
chain: ASSGGQAEQLDALVKKDKVVVFLKGTPEQPQCGFSNAVVQILRLHGVRDYAAYNVLDDPELRQGIKDYSNWPTIPQVYLNGEFVGGCDILLQMHQNGDLVEELKKLGIRSALVDEKDQDSK
B5: mouse sideroflexin-1 (sfxn1) (protein, UniProt Q99JR1 1-322)
chain: MSGEVPPNINIKEPRWDQSTFIGRASHFFTVTDPRNILLTNEQLENARKVVHDYRQGIVPAGLTENELWRAKYAYDSAFHPDTGEKMTLIGRMSAQVPMNMTITGCMMTFYRTTPAVLFWQWINQSFNAVVNYTNRSGDAPLTVNELGTAYVSATTGAVATALGLNALTKRVSPLIGRFVPFAAVAAANCINIPLMRQRELKVGIPVTDENGTRLGESTNAAKQAITQVVISRILMAAPGMAIPPFIMNTLEKKAFLKRFPWMSAPIQVTLVGFCLVFATPLCCALFPQKSSMSVTSLEDELQASIQRTHPEIRRVYFNKGL
B6: mouse metalloreductase steap3 (steap3) (enzyme, UniProt Q8CI59 1-488)
chain: MSGEMDKPLISRRLVDSDGSLAEVPKEAPKVGILGSGDFARSLATRLVGSGFSVVVGSRNPKRTAGLFPSLAQVTFQEEAVSSPEVIFVAVFREHYSSLCSLADQLAGKILVDVSNPTEKEHLQHRQSNAEYLASLFPACTVVKAFNVISAWALQAGPRDGNRQVLICSDQPEAKRTISEMARAMGFTPLDMGSLASAREVEAIPLRLLPSWKVPTLLALGLFVCFYTYNFIRDVLQPYIRKDENKFYKMPLSVVNTTLPCVAYVLLSLVYLPGVLAAALQLRRGTKYQRFPDWLDHWLQHRKQIGLLSFFFAMLHALYSFCLPLRRSHRYDLVNLAVKQVLANKSRLWVEEEVWRMEIYLSLGVLALGMLSLLAVTSLPSIANSLNWKEFSFVQSTLGFVALILSTMHTLTYGWTRAFEENHYKFYLPPTFTLTLLLPCVIILAKGLFLLPCLSRRLTKIRRGWEKDGAVKFMLPGDHTQGEKTSHV
B7: mouse protoporphyrinogen oxidase (enzyme, UniProt P51175 1-477)
chain: MGRTVIVLGGGISGLAASYHLIRGPSPPKVILVEGSKRLGGWIRSIRGSDGAIFELGPRGIRPAGALGARTLLLVSELGLESEVLPVRGDHPAAQNRFLYVGGTLHPLPSGLRGLLRPSPPFSKPLFWAGLRELLKPRGKEPDETVHSFAQRRLGPEVASLAMDSLCRGVFAGNSRELSIRSCFPSLFQAEQTHRSILLGLLLGAGQSPQPDSSLIRQARAERWSQWSLRGGLEVLPQALHNHLASKGVTVLSGQPVCGLSLQPEGRWKVSLGDSSLEADHIISAIPASELSKLLPAEAAPLARILSTIKAVSVAVVNLQYRGACLPVQGFGHLVPSSEDPTVLGIVYDSVAFPEQDGNPPSLRVTVMLGGYWLQKLKAAGHQLSPELFQQQAQEAAATQLGLKEPPSHCLVHLHKNCIPQYTIGHWQKLDSAMQFLTAQRLPLTLAGASYEGVAVNDCIESGRQAAVAVLGTESNS
B8: mouse mitoferrin (protein, UniProt Q920G8 1-338)
chain: MELRRGGVGNQAAGRRMDGDCRDGGCGSKDAGSEDYENLPTSASVSTHMTAGAMAGILEHSIMYPVDSVKTRMQSLNPDPKARYTSIYGALKRIMHTEGFWRPLRGLNVMMMGAGPAHAMYFACYENMKRTLNDVFSHQGNSHLANGVAGSMATLLHDAVMNPAEVVKQRLQMYNSQHQSAFSCIRTVWRTEGLGAFYRSYTTQLTMNIPFQSIHFITYEFLQEQVNPRRDYNPQSHIISGGLAGALAAAATTPLDVCKTLLNTQENMALSLANVSGRLSGMANAFRTVYQLNGLAGYFKGIQARVIYQMPSTAISWSVYEFFKYILTKRQLENRTLY
B9: mouse transmembrane protein 14C (tmem14c) (protein, UniProt Q9CQN6 1-114)
chain: MQKDSGPLMPLHYFGFGYAALVATGGIIGYAKAGSVPSLAAGLFFGGLAGLGAYQLSQDPRNVWVFLATSGTLAGIMGMRFYNSGKFMPAGLIAGASLLMVAKVGISLLSSPHP

What follows are binders tested against T1, FLAG-FECH M76H variant (human ferrochelatase) (human) (assay: affinity purification with mass spectrometry; FLAG-tagged human bait stably expressed in MEL cells induced 72 h with 1.5% DMSO; isolated mitochondria lysed in 50 mM Tris-HCl pH 7.5, 1 mM EDTA, 150 mM NaCl, 1% Nonidet P-40; anti-FLAG agarose overnight at 4°C, washes with 0.1% Nonidet P-40, elution with FLAG peptide, MudPIT MS; empty vector as control).
For B1, the binding was “binds”. B2 was tested, and the binding was “binds”. B3 was tested, and the binding was “binds”. With B4 the binding was “binds”. In the case of B5, the binding is reported as “binds”. In the case of B6, the binding is reported as “binds”. B7 was tested, and the binding was “binds”. With B8 the binding was “no binding”.

These binders were tested against T2, FLAG-PPOX (human protoporphyrinogen oxidase, carboxy terminal FLAG) (human) in the same assay as above.
With B9 the binding was “binds”. For B1, the binding was “binds”. B2 was tested, and the binding was “binds”. B3 was tested, and the binding was “binds”. For B4, the binding was “binds”. In the case of B5, the binding is reported as “binds”. B6 was tested, and the binding was “binds”. With B7 the binding was “binds”.

What follows are binders tested against T3, FLAG-FECH E343K variant (human ferrochelatase) (human) in the same assay as above.
In the case of B1, the binding is reported as “binds”. B2 was tested, and the binding was “binds”. With B3 the binding was “binds”. For B4, the binding was “binds”. With B5 the binding was “binds”. B6 was tested, and the binding was “binds”. B7 was tested, and the binding was “binds”. B8 was tested, and the binding was “no binding”.

Each binder was assayed against T4, FLAG-FECH (human ferrochelatase, wild type) (human) in the same assay as above.
B1 was tested, and the binding was “binds”. In the case of B2, the binding is reported as “binds”. B3 was tested, and the binding was “binds”. For B4, the binding was “binds”. For B5, the binding was “binds”. B6 was tested, and the binding was “binds”. In the case of B7, the binding is reported as “binds”. For B8, the binding was “no binding”.
